The target in the test is V5-tagged HCV core (strain H77, amino-acid residues 1-191) (Hepatitis C virus, strain H77). The experiment in a line: co-IP; anti-V5 immunoprecipitation from HEK293T cells transfected with V5-tagged HCV proteins for 48 hrs; western blot for endogenous Nups and Kaps; some samples treated with Kap β3/IPO5-NLS peptides or control penetratin peptides, or transfected with cNLS-GFP, 12 hrs after transfection. (A western blot detects proteins with antibodies after separation by electrophoresis.)

Results are given in words; binding and its absence hold for the method and conditions named. In cells and extracts the contact can be indirect. A result given as binding can be weak or reduced; the word gives no strength.

B1: Nup107 (protein, UniProt P57740-1 1-925)
chain: MDRSGFGEISSPVIREAEVTRTARKQSAQKRVLLQASQDENFGNTTPRNQVIPRTPSSFRQPFTPTSRSLLRQPDISCILGTGGKSPRLTQSSGFFGNLSMVTNLDDSNWAAAFSSQRSGLFTNTEPHSITEDVTISAVMLREDDPGEAASMSMFSDFLQSFLKHSSSTVFDLVEEYENICGSQVNILSKIVSRATPGLQKFSKTASMLWLLQQEMVTWRLLASLYRDRIQSALEEESVFAVTAVNASEKTVVEALFQRDSLVRQSQLVVDWLESIAKDEIGEFSDNIEFYAKSVYWENTLHTLKQRQLTSYVGSVRPLVTELDPDAPIRQKMPLDDLDREDEVRLLKYLFTLIRAGMTEEAQRLCKRCGQAWRAATLEGWKLYHDPNVNGGTELEPVEGNPYRRIWKISCWRMAEDELFNRYERAIYAALSGNLKQLLPVCDTWEDTVWAYFRVMVDSLVEQEIQTSVATLDETEELPREYLGANWTLEKVFEELQATDKKRVLEENQEHYHIVQKFLILGDIDGLMDEFSKWLSKSRNNLPGHLLRFMTHLILFFRTLGLQTKEEVSIEVLKTYIQLLIREKHTNLIAFYTCHLPQDLAVAQYALFLESVTEFEQRHHCLELAKEADLDVATITKTVVENIRKKDNGEFSHHDLAPALDTGTTEEDRLKIDVIDWLVFDPAQRAEALKQGNAIMRKFLASKKHEAAKEVFVKIPQDSIAEIYNQCEEQGMESPLPAEDDNAIREHLCIRAYLEAHETFNEWFKHMNSVPQKPALIPQPTFTEKVAHEHKEKKYEMDFGIWKGHLDALTADVKEKMYNVLLFVDGGWMVDVREDAKEDHERTHQMVLLRKLCLPMLCFLLHTILHSTGQYQECLQLADMVSSERHKLYLVFSKEELRKLLQKLRESSLMLLDQGLDPLGYEIQL
On to B1, for which the binding result is “binds”.

B2: Nup155 (protein, UniProt O75694-1 1-1391)
chain: MPSSLLGAAMPASTSAAALQEALENAGRLIDRQLQEDRMYPDLSELLMVSAPNNPTVSGMSDMDYPLQGPGLLSVPNLPEISSIRRVPLPPELVEQFGHMQCNCMMGVFPPISRAWLTIDSDIFMWNYEDGGDLAYFDGLSETILAVGLVKPKAGIFQPHVRHLLVLATPVDIVILGLSYANLQTGSGVLNDSLSGGMQLLPDPLYSLPTDNTYLLTITSTDNGRIFLAGKDGCLYEVAYQAEAGWFSQRCRKINHSKSSLSFLVPSLLQFTFSEDDPILQIAIDNSRNILYTRSEKGVIQVYDLGQDGQGMSRVASVSQNAIVSAAGNIARTIDRSVFKPIVQIAVIENSESLDCQLLAVTHAGVRLYFSTCPFRQPLARPNTLTLVHVRLPPGFSASSTVEKPSKVHRALYSKGILLMAASENEDNDILWCVNHDTFPFQKPMMETQMTAGVDGHSWALSAIDELKVDKIITPLNKDHIPITDSPVVVQQHMLPPKKFVLLSAQGSLMFHKLRPVDQLRHLLVSNVGGDGEEIERFFKLHQEDQACATCLILACSTAACDREVSAWATRAFFRYGGEAQMRFPTTLPPPSNVGPILGSPVYSSSPVPSGSPYPNPSFLGTPSHGIQPPAMSTPVCALGNPATQATNMSCVTGPEIVYSGKHNGICIYFSRIMGNIWDASLVVERIFKSGNREITAIESSVPCQLLESVLQELKGLQEFLDRNSQFAGGPLGNPNTTAKVQQRLIGFMRPENGNPQQMQQELQRKFHEAQLSEKISLQAIQQLVRKSYQALALWKLLCEHQFTIIVAELQKELQEQLKITTFKDLVIRDKELTGALIASLINCYIRDNAAVDGISLHLQDICPLLYSTDDAICSKANELLQRSRQVQNKTEKERMLRESLKEYQKISNQVDLSNVCAQYRQVRFYEGVVELSLTAAEKKDPQGLGLHFYKHGEPEEDIVGLQAFQERLNSYKCITDTLQELVNQSKAAPQSPSVPKKPGPPVLSSDPNMLSNEEAGHHFEQMLKLSQRSKDELFSIALYNWLIQVDLADKLLQVASPFLEPHLVRMAKVDQNRVRYMDLLWRYYEKNRSFSNAARVLSRLADMHSTEISLQQRLEYIARAILSAKSSTAISSIAADGEFLHELEEKMEVARIQLQIQETLQRQYSHHSSVQDAVSQLDSELMDITKLYGEFADPFKLAECKLAIIHCAGYSDPILVQTLWQDIIEKELSDSVTLSSSDRMHALSLKIVLLGKIYAGTPRFFPLDFIVQFLEQQVCTLNWDVGFVIQTMNEIGVPLPRLLEVYDQLFKSRDPFWNRMKKPLHLLDCIHVLLIRYVENPSQVLNCERRRFTNLCLDAVCGYLVELQSMSSSVAVQAITGNFKSLQAKLERLH
As for B2, the binding entry is “no binding”.
